Experimental findings from the supplement of paper PMC10849652 are described below.

The chains behind the UniProt entries cited, without tags or fusion partners. Where a name states a change or a piece, a line headed by the entry shows the natural chain unless it says otherwise.
UniProt Q9NZJ7, whole entry, looked up: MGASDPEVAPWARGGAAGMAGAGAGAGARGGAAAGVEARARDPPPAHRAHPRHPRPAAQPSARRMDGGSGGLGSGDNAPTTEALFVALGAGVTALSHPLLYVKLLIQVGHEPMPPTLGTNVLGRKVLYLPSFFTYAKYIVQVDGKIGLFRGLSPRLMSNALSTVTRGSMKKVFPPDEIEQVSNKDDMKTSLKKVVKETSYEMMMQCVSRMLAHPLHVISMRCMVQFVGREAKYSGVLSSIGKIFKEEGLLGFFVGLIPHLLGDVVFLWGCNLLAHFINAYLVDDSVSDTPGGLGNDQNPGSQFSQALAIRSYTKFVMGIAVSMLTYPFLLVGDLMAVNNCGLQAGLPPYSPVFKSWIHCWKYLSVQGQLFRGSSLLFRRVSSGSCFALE
UniProt P13995: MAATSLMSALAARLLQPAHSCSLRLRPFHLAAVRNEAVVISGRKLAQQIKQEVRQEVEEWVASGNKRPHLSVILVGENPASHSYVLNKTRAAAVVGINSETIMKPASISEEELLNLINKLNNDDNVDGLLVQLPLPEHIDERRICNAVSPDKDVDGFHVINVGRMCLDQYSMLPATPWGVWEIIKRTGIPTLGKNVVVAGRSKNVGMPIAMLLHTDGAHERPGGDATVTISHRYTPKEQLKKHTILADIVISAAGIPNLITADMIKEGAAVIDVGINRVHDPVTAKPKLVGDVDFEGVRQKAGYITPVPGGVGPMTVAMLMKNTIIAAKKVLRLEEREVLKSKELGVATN
UniProt O94832: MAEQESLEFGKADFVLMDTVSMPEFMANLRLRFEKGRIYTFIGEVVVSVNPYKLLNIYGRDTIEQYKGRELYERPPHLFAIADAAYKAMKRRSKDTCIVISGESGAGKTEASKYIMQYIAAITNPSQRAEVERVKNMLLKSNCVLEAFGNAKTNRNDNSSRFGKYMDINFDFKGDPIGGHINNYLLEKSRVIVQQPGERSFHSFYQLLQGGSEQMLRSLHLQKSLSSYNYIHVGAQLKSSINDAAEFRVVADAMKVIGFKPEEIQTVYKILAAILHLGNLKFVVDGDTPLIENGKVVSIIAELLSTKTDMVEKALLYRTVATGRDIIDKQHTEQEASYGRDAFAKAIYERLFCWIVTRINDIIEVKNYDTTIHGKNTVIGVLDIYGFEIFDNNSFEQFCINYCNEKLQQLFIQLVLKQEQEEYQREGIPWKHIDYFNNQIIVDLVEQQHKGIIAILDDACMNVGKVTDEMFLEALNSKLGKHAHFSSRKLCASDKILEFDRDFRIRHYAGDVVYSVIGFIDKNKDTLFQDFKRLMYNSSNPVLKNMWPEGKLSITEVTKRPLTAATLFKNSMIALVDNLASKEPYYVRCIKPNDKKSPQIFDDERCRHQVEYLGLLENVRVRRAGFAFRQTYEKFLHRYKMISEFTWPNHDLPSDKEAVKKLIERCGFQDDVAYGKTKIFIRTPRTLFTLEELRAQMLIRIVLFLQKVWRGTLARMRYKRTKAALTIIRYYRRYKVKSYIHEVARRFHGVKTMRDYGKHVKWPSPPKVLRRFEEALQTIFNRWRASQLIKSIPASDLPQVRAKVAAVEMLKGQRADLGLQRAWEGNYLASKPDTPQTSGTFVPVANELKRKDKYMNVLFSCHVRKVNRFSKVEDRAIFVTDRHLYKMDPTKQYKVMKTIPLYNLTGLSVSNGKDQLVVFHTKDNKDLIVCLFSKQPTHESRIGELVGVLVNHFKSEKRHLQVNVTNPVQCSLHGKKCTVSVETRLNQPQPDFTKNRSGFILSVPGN
UniProt Q9C0I1: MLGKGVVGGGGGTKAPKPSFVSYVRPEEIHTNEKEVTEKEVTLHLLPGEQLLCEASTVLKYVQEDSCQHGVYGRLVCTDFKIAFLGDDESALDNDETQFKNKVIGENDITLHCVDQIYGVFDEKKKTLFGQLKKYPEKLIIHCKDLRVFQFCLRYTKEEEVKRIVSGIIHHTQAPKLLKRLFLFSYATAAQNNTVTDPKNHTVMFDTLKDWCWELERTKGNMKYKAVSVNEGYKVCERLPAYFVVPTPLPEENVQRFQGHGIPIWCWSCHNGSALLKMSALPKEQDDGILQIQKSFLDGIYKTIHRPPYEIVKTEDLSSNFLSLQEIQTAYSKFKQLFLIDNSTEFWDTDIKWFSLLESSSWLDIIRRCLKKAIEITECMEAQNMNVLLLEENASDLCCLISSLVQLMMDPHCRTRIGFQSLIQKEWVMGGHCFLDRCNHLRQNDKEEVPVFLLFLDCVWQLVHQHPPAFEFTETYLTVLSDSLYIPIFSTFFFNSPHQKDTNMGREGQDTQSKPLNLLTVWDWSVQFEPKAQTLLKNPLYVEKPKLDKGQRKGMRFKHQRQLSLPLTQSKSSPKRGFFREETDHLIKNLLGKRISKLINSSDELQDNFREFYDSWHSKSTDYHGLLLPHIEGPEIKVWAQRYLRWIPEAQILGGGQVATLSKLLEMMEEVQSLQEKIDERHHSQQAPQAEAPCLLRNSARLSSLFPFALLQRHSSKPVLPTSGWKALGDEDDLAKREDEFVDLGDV
UniProt P26038, whole entry, looked up: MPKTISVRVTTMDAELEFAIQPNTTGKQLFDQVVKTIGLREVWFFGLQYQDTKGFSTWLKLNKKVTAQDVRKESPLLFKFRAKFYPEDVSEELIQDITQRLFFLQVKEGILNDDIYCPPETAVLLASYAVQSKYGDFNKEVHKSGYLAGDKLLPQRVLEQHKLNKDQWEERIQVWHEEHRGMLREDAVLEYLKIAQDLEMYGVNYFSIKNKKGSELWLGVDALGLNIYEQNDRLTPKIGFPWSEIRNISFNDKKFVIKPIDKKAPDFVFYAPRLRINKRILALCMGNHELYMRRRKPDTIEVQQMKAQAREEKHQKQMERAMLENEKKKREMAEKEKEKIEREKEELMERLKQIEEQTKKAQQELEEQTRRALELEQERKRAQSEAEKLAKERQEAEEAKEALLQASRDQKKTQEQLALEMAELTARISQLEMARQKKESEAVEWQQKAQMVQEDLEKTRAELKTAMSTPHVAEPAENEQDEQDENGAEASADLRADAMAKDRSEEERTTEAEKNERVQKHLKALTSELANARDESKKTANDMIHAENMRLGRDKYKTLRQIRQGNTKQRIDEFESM
UniProt P05976, whole entry, looked up: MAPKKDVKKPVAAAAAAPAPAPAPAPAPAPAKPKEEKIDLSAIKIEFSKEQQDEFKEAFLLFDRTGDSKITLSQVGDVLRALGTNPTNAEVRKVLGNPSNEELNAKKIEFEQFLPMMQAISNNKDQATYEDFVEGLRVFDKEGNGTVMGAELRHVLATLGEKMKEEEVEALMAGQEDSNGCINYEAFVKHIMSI
UniProt Q96DR8: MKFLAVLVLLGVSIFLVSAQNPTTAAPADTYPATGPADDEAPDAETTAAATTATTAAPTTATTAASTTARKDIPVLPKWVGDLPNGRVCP
UniProt Q99417: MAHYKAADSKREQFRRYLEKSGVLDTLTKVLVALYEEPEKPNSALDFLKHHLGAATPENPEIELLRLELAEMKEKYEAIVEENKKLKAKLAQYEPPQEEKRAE
UniProt Q969V6: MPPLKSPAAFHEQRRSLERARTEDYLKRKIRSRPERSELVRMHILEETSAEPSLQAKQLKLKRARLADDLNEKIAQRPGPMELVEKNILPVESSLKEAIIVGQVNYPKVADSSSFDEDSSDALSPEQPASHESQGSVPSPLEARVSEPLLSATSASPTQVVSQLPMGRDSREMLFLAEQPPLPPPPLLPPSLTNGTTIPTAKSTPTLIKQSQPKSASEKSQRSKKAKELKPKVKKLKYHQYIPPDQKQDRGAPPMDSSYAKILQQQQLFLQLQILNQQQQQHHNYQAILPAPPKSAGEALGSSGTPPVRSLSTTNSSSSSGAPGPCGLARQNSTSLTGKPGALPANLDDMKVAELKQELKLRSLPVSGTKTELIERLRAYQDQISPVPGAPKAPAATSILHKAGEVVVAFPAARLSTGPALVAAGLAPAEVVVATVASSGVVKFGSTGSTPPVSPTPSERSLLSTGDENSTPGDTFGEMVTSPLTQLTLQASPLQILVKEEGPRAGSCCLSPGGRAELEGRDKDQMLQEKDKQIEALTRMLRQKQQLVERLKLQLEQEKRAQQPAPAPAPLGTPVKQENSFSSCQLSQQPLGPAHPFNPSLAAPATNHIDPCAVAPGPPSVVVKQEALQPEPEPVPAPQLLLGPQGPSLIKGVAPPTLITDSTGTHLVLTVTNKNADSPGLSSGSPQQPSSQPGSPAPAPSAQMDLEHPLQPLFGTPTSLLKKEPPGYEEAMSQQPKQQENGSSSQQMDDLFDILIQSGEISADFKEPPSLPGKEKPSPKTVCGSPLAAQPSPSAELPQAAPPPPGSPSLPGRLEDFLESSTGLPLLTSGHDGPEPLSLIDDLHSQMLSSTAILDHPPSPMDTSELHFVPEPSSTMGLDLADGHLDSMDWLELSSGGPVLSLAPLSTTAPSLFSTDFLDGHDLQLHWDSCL
UniProt P14649: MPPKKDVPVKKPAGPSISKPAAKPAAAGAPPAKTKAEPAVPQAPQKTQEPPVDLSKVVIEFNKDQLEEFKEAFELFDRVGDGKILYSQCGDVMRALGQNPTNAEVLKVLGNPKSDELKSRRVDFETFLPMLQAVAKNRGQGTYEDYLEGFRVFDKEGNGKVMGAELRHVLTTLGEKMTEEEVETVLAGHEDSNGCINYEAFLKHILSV
UniProt Q9NVV4: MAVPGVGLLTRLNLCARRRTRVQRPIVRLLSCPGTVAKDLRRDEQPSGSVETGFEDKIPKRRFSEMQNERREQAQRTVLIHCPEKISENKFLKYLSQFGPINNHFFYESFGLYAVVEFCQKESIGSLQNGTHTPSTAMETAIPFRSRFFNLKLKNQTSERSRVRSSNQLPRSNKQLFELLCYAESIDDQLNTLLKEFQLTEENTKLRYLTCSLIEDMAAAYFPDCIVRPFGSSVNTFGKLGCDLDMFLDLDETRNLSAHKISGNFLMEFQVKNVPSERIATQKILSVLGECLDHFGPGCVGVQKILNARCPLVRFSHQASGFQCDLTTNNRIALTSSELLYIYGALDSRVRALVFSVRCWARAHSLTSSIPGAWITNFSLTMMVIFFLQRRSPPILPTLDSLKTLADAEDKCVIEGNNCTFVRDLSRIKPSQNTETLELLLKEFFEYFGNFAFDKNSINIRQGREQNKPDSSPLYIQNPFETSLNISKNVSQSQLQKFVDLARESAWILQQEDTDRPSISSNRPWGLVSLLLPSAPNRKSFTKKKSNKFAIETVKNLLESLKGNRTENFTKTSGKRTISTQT
UniProt Q8NCE2: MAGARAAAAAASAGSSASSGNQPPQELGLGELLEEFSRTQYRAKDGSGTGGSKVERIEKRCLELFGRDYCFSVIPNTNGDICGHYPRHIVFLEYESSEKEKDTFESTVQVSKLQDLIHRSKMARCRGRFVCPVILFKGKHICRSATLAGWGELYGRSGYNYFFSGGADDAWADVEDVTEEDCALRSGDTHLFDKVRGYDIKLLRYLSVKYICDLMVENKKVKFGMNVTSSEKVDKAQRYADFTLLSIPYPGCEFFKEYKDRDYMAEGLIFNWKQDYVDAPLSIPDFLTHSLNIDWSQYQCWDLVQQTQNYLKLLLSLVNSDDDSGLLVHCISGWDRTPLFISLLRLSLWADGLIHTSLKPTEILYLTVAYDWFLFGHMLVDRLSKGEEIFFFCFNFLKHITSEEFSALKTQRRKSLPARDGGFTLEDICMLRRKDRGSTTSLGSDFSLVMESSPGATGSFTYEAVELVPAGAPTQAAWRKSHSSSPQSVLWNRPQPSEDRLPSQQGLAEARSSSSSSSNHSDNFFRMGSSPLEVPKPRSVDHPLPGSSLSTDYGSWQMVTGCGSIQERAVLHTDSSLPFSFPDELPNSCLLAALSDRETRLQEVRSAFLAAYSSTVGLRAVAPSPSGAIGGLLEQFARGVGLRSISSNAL
UniProt Q13330: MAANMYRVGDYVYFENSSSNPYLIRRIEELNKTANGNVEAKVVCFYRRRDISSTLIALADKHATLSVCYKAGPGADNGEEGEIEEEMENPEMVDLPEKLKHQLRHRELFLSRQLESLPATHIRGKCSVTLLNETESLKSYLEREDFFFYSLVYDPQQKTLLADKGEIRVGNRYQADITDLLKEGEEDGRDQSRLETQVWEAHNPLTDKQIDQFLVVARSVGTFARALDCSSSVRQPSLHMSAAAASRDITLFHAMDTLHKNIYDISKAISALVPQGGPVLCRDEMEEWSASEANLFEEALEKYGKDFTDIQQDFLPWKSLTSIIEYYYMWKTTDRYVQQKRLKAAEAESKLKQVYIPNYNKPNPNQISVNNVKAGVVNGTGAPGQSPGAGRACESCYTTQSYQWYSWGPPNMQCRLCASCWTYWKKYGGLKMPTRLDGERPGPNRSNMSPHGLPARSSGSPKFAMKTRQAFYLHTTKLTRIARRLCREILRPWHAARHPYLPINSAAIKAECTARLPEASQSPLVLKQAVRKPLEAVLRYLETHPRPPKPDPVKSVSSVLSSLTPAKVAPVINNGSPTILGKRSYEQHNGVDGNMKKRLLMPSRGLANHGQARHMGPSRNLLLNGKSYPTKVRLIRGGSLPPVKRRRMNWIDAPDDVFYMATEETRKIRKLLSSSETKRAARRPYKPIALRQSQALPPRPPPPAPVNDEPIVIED

The other results are listed elsewhere or left out.

Compound in this assay: Cc1ccc(NC(=O)c2ccc(CN3CC[C@H](N(C)C)C3)c(C(F)(F)F)c2)cc1Nc1nccc(-c2cncnc2)n1 [bafetinib]
As to the kind of experiment: log2 fold change, soluble protein after heating vs DMSO (PISA); higher = thermal stabilisation; K562 cells, 10 uM, 30 min; active = over 0.2 and 3.5 SD of the protein, either way, in both replicates (recomputed). In outline:
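Values are thermal stability changes relative to control samples and are taken from duplicates. They are stated as log2 fold changes. Before quantification by TMTpro 16plex LC-MS/MS with equalised channel sums, K562 cells at 2×10^6 cells/mL were treated with 10 μM compound for 30 min, heated in aliquots for 3 min across 48°C-58°C, pooled, extracted in PBS with 0.5% NP-40 at 4°C, and centrifuged at 21,000xg for 90 min to give the soluble supernatant.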
As to MTCH1 (UniProt Q9NZJ7), the log2 fold change is inactive: 0.053. Consider MTHFD2 (UniProt P13995), for which the log2 fold change is inactive: -0.056.

As to MT-CYB (UniProt P00156), the log2 fold change was inactive: 0.005.

Consider MYH11 isoform 2 (UniProt P35749), for which the log2 fold change is inactive: -0.055. With MT-ATP6 (UniProt P00846), the log2 fold change was inactive: 0.162. For the target MYO1D (UniProt O94832), the log2 fold change was inactive: -0.055. Next, MTHFD1, A0A384N5Y3: inactive: 0.099. For MRRF (UniProt Q96E11), the log2 fold change was inactive: 0.046. Turning to MTMR12 (UniProt Q9C0I1), the log2 fold change is inactive: -0.031.

With MSN (UniProt P26038), the log2 fold change was inactive: 0.029. Next, MYL1 (UniProt P05976): inactive: -0.368; MSMO1 (UniProt Q15800): inactive: -0.135.

Consider MRPS10 (UniProt P82664), for which the log2 fold change is inactive: 0.057.

For MTMR6 (UniProt Q9Y217), the log2 fold change is inactive: -0.116. As for MUCL1 (UniProt Q96DR8), the log2 fold change was inactive: -0.085. As to MRPS2 (UniProt Q9Y399), the log2 fold change is inactive: 0.191. Regarding MRPS15 (UniProt P82914), the log2 fold change was inactive: 0.126.

In the case of MRPS27 isoform 2 (UniProt Q92552), the log2 fold change is inactive: 0.181.

Regarding MSRB2 (UniProt Q9Y3D2), the log2 fold change was inactive: -0.055. For MYCBP (UniProt Q99417), the log2 fold change is inactive: -0.03. For the target MRPS11 (UniProt P82912), the log2 fold change is inactive: 0.266. Consider MRPS33 (UniProt Q9Y291), for which the log2 fold change was inactive: 0.123.

With MRTFA (UniProt Q969V6), the log2 fold change was inactive: 0.003. With MYL6B (UniProt P14649), the log2 fold change is inactive: -0.04.

In the case of MTM1 (UniProt Q13496), the log2 fold change was inactive: -0.016. With MRPS36 (UniProt P82909), the log2 fold change was inactive: -0.036. MTRR isoform 1 (UniProt Q9UBK8): the log2 fold change was inactive: -0.06.

Turning to MRPS24 (UniProt Q96EL2), the log2 fold change was inactive: 0.283. For MTPAP (UniProt Q9NVV4), the log2 fold change was inactive: 0.091. Take MRPL9 (UniProt Q9BYD2): the log2 fold change is inactive: 0.259. Next, MRPS30 (UniProt Q9NP92): inactive: 0.272; MTMR14 (UniProt Q8NCE2): inactive: -0.051; MTX2 (UniProt O75431): inactive: -0.083. Regarding MTA1 (UniProt Q13330), the log2 fold change was inactive: -0.05.

As to MYADM (UniProt Q96S97), the log2 fold change was inactive: 0.105. MTOR (UniProt P42345): the log2 fold change is inactive: -0.018.

As to MYO6 isoform 6 (UniProt Q9UM54), the log2 fold change is inactive: -0.063. With MYH9 (UniProt P35579), the log2 fold change is inactive: -0.011. For MRPS18A isoform 2 (UniProt Q9NVS2), the log2 fold change was inactive: 0.145. Consider MRS2 (UniProt Q9HD23), for which the log2 fold change is inactive: -0.03.
